Here are results for two molecules from patent publication US20190077858A1 (KM BIOLOGICS, published 2019).

This test addresses monkey IL-18 (Thermo Fisher Scientific K.K.) (monkey). The test is described as follows: ELISA on biotinylated cytokine on streptavidin plates. A general note: In an ELISA, binding on a coated surface is turned into a signal by an enzyme label.

Positions count from the first letter of the chain named. These are yes or no findings as the source states them, for the method shown. A result given as binding can be weak or reduced; the word gives no strength.

B1: IgG molecule-type 4A6D (antibody, V domains shown)
VH: EVQLVESGGGLVQPGGSMRLSCTASGFTFDEYAMSWVRQAPGKGLEWVSGISTGGGGTYYADSVEGRFTISRDNSKNTLYLQMNSLRAEDTAVYYCAKPWLSGSRSGDFWGQGTLVTVSS
VL: QSALTQPASVSGSPGQSITISCTGTSSDVGGYNYVSWYQQHPGKAPKLLIYEVSHRPSGVSDRFSGSKSGNTASLTISGLQAEDEADYYCSSFTSSSSLYVFGTGTKLTVL
notes: detected with anti-hFc, so human constant regions; also called human anti-human IL-18 antibody 4A6D
For the molecule B1, the binding result is on record as “binds”.

B2: IgG molecule-type 4A6S (antibody, V domains shown)
VH: B1 VH with D30S
VL: B1 VL
notes: IgG prepared by a standard method; also called human anti-human IL-18 antibody 4A6S
On to B2, for which the binding result was “binds”.
